According to paper PMC10206070:

T1: Adenosine Deaminase Acting on RNA 1 (ADAR1) (human (endogenous in MDA-MB-231)) (UniProt P55265)
T1 sequence: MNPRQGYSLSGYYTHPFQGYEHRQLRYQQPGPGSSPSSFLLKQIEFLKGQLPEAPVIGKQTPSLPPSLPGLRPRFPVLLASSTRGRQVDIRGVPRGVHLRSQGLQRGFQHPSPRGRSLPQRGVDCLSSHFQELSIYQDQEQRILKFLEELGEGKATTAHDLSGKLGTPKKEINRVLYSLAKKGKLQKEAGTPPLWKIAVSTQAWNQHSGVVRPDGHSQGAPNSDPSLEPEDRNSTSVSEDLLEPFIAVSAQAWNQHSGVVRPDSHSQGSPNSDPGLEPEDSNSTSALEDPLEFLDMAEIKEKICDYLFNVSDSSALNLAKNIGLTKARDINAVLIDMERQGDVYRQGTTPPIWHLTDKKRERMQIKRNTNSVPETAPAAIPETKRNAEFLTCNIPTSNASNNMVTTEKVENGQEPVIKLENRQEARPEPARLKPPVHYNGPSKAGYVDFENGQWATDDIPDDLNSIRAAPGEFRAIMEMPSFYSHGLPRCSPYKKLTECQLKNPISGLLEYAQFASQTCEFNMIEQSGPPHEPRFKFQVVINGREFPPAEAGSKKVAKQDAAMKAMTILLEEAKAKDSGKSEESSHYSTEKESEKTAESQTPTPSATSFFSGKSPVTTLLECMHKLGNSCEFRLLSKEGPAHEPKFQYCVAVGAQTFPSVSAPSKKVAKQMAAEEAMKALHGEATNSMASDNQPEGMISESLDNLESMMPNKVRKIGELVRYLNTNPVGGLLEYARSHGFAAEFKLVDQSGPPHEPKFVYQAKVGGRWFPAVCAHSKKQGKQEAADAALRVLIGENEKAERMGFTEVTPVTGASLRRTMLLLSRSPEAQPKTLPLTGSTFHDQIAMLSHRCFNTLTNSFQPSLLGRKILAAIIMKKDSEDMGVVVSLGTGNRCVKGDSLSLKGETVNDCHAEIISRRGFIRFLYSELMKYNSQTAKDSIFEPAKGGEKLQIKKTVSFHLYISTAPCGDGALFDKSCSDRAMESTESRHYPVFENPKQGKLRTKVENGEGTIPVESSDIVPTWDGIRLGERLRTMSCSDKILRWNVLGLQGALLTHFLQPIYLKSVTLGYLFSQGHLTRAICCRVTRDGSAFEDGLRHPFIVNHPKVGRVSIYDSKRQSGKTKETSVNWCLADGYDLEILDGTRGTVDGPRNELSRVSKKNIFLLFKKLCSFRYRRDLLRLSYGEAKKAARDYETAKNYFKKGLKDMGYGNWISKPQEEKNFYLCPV

B1: Kynureninase (KYNU) (enzyme, UniProt Q16719 1-465)
chain: MEPSSLELPADTVQRIAAELKCHPTDERVALHLDEEDKLRHFRECFYIPKIQDLPPVDLSLVNKDENAIYFLGNSLGLQPKMVKTYLEEELDKWAKIAAYGHEVGKRPWITGDESIVGLMKDIVGANEKEIALMNALTVNLHLLMLSFFKPTPKRYKILLEAKAFPSDHYAIESQLQLHGLNIEESMRMIKPREGEETLRIEDILEVIEKEGDSIAVILFSGVHFYTGQHFNIPAITKAGQAKGCYVGFDLAHAVGNVELYLHDWGVDFACWCSYKYLNAGAGGIAGAFIHEKHAHTIKPALVGWFGHELSTRFKMDNKLQLIPGVCGFRISNPPILLVCSLHASLEIFKQATMKALRKKSVLLTGYLEYLIKHNYGKDKAATKKPVVNIITPSHVEERGCQLTITFSVPNKDVFQELEKRGVVCDKRNPNGIRVAPVPLYNSFHDVYKFTNLLTSILDSAETKN

Biological target: T1, Adenosine Deaminase Acting on RNA 1 (ADAR1) (human (endogenous in MDA-MB-231))
Assay: affinity purification with mass spectrometry; endogenous ADAR1 immunoprecipitated from MDA-MB-231 lysate with a rabbit polyclonal anti-ADAR1 antibody on protein A/G beads, normal rabbit IgG as control; two biological and 3 technical replicates; hits kept with p < 0.05 and fold change > 2 over IgG

Row | Molecule | binding
1 | Complement C4-A (human (endogenous in MDA-MB-231)) | binds
2 | Nebulin (from UniProt P20929 1-8525) | binds
3 | B1 | binds

Results are given in words; binding and its absence hold for the method and conditions named. Binding seen in cells or lysates may run through a third protein. Here binding means that the protein was enriched with, or labelled near, the bait; the list need not be complete.
